Test results from article PMC9564337 (Cancers, 2022).

Experiments:
[1] = general procedure: Fmoc solid-phase peptide synthesis; H-Leu-2-ClTrt resin (loading 0.79 mmol/g); 2-ClTrt-Cl resin for 46 and 47; HBTU/HOBt/DIPEA; oxyma/DIC for 11; conditions: whole synthesis, 220 nm, hydrotrifluoroacetate (TFA salt)
[2] = general procedure: Fmoc solid-phase peptide synthesis; 2-ClTrt-Cl resin; HBTU/HOBt/DIPEA; oxyma/DIC for 11; conditions: whole synthesis, scale 0.064 mmol, hydrotrifluoroacetate (TFA salt)
[3] = general procedure: Fmoc solid-phase peptide synthesis; H-Leu-2-ClTrt resin; HBTU/HOBt/DIPEA; oxyma/DIC for 11; conditions: whole synthesis, scale 0.0316 mmol, hydrotrifluoroacetate (TFA salt)

PEPTIDE1{[NMeArg].R.P.Y.I.[aMeLeu]}$$$$V2.0
final HPLC purity [1]: > 99% | isolated mass [2]: 11.7 mg | isolated yield [2]: 15%

PEPTIDE1{[NMeArg].R.P.Y.I.[cPrAla]}$$$$V2.0
final HPLC purity ([2]; 220 nm): 99%

PEPTIDE1{[NMeArg].R.P.Y.[cPrAla].L}$$$$V2.0
final HPLC purity [1]: 98% | isolated mass [3]: 17.5 mg | isolated yield [3]: 47%

Strings that start with PEPTIDE1 are HELM notation: dots part the residues, brackets hold end groups and non-standard residues.
